Experimental data as given in the M2OR odorant receptor database.
Only a part is listed here, and it is no random draw. The calls were merged from several studies; some rest on single wells. The list shows a part of the results.

Protein sequences, listed by entry. Tags and fused reporters are not part of them. Lines headed by an entry give the natural chain unless they say otherwise; changes in a name come on top.
UniProt Q96RD3: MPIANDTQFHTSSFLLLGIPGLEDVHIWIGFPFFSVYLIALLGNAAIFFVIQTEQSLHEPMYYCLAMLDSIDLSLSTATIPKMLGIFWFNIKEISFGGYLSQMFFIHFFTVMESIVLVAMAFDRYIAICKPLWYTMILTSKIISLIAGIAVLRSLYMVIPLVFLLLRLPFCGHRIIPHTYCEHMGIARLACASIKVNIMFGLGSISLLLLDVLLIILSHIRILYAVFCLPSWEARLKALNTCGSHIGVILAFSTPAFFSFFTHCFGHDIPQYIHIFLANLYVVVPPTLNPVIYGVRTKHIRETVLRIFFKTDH

How the values were obtained:
Details in all cases: stereoisomer not certain
OR52E6 (Homo sapiens) = OR52E6 (Homo sapiens) (UniProt Q96RD3)
Outline: (§1)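 Whether a receptor–molecule pair is responsive (active) rests on the original authors' judgment that its measured signal was statistically different from baseline. Pairs without that judgment are non-responsive (inactive). Sources used varied assay methods, commonly transient luciferase assays in mammalian cell lines.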

OR52H1 (Homo sapiens) = target: T1, OR52H1 (Homo sapiens) (UniProt Q8NGJ2)
T1 sequence (whole entry): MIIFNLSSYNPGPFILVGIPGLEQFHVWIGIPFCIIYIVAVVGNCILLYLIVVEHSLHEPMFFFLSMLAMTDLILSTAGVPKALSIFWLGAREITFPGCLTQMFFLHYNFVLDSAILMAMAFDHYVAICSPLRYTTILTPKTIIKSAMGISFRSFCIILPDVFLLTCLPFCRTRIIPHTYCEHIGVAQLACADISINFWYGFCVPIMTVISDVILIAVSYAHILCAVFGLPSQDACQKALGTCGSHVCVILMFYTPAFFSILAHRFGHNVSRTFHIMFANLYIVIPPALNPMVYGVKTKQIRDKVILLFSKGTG
Outline: as §1

OR52K1 (Homo sapiens) = target: T2, OR52K1 (Homo sapiens) (UniProt Q8NGK4)
T2 sequence (whole entry): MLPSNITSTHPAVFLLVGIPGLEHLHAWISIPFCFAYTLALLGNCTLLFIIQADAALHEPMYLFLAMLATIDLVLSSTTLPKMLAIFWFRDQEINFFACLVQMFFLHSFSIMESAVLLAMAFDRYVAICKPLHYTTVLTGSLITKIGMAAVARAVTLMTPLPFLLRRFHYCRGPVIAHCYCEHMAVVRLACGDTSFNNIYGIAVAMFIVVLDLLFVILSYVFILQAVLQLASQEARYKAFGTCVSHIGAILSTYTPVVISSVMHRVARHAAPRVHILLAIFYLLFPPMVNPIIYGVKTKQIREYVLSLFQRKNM
Outline: as §1

OR52K2 (Homo sapiens) = target: T3, OR52K2 (Homo sapiens) (UniProt Q8NGK3)
T3 sequence (whole entry): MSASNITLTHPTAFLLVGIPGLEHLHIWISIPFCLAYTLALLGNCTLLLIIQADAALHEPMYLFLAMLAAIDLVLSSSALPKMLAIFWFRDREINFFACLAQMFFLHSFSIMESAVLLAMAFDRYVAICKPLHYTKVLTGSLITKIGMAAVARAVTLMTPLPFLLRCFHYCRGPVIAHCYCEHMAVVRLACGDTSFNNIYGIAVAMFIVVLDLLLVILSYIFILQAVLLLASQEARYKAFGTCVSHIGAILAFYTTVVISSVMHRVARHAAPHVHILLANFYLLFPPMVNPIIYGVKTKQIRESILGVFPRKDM
Outline: as §1
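Also: active if original authors judged signal statistically different from baseline.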

Structure (SMILES)	odorant receptor agonist call (OR52E6 (Homo sapiens))	odorant receptor agonist call (OR52H1 (Homo sapiens))	odorant receptor agonist call (OR52K1 (Homo sapiens))	odorant receptor agonist call (OR52K2 (Homo sapiens))
CCCCCOC(C)=O	inactive	inactive	inactive	inactive
CCCCCCCCCC=O	inactive	inactive	inactive	inactive
CC(C)C=O	inactive	inactive	inactive	inactive
CCCCCCCC=CC=O	inactive	inactive	inactive	inactive
COC(=O)c1ccccc1O	inactive	inactive	inactive	inactive
CCC=CCCO	inactive	active	inactive	inactive
c1ccc(Oc2ccccc2)cc1	inactive	inactive	inactive	inactive
CC12CCC(CC1)C(C)(C)O2	inactive	inactive	inactive	inactive
CC1=CCC(C(C)(C)O)CC1 (configuration not stated)	inactive	inactive	inactive	inactive
CCCCCCCCCCC=O	inactive	inactive	inactive	inactive
O=CCc1ccccc1	inactive	inactive	inactive	inactive
CC(=O)OC(C)(C)C1CC=C(C)CC1 (configuration not stated)	inactive	inactive	inactive	inactive
O=C1CCCCC1	inactive	–	inactive	inactive
CC(=O)OCC=C(C)CCC=C(C)C	inactive	active	inactive	inactive
CC(=O)c1ccccc1	inactive	–	inactive	inactive
CCC1(O)C2(C)CCC(C2)C1(C)C (configuration not stated)	inactive	inactive	inactive	inactive
O=C1CCCCCCCCCCCCCCO1	inactive	inactive	inactive	inactive
C=CCSCC=C	inactive	inactive	inactive	inactive
CCCCCC(C)=O	inactive	–	inactive	inactive
c1cnccn1	inactive	inactive	inactive	inactive

Exported as a markdown table: part of the list above

| Structure (SMILES) | odorant receptor agonist call (OR52E6 (Homo sapiens)) | odorant receptor agonist call (OR52H1 (Homo sapiens)) | odorant receptor agonist call (OR52K1 (Homo sapiens)) | odorant receptor agonist call (OR52K2 (Homo sapiens)) |
| --- | --- | --- | --- | --- |
| CCC1(O)C2(C)CCC(C2)C1(C)C (configuration not stated) | inactive | inactive | inactive | inactive |
| O=C1CCCCCCCCCCCCCCO1 | inactive | inactive | inactive | inactive |
